Some of the results follow.
Compound: Cc1ccc(-n2nc(C(C)(C)C)cc2NC(=O)Nc2ccc(OCCN3CCOCC3)c3ccccc23)cc1 [doramapimod]
Assay: log2 fold change, soluble protein after heating vs DMSO (PISA); higher = thermal stabilisation; K562 lysate, 10 uM; active = over 0.2 and 3.5 SD of the protein, either way, in both replicates (recomputed)
Method in brief: (§1)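 Soluble protein was defined as the supernatant remaining after 21,000xg for 90 min, following pooling of heated aliquots and adjustment to 0.5% NP-40 at 4°C. Before that, crude K562 extract at 1 mg/mL protein in PBS pH 7.4 with 1 mM MgCl2 was treated with 10 μM compound for 30 min and heated for 3 min across 48°C-58°C. Quantification used TMTpro 16plex LC-MS/MS with channel sums equalised, and values are log-two fold changes in thermal stability relative to solvent controls from duplicates.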

Protein sequences, listed by entry. Tags and fused reporters are not part of them. Lines headed by an entry give the natural chain unless they say otherwise; changes in a name come on top.
UniProt Q9NRZ5: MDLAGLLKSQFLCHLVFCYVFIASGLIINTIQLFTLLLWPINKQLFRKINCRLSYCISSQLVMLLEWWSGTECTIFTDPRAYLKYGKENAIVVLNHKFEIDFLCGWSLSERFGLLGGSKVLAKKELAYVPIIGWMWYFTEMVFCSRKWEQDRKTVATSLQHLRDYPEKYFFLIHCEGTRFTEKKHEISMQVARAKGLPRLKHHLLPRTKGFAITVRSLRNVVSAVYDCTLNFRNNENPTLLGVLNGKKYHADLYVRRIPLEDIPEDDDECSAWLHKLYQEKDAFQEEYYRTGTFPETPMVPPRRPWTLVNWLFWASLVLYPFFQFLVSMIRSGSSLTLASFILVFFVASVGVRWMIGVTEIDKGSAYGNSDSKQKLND
UniProt Q3LIE5: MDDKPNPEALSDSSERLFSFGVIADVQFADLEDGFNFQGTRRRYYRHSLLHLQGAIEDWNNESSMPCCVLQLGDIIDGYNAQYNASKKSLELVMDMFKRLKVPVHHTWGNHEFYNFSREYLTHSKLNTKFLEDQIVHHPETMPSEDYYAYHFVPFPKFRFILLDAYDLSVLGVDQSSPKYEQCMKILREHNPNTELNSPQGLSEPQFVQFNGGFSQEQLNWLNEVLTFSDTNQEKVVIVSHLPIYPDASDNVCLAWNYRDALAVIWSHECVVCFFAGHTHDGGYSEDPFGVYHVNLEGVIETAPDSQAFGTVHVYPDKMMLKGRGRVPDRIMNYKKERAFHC
UniProt Q9H9F9, whole entry, looked up: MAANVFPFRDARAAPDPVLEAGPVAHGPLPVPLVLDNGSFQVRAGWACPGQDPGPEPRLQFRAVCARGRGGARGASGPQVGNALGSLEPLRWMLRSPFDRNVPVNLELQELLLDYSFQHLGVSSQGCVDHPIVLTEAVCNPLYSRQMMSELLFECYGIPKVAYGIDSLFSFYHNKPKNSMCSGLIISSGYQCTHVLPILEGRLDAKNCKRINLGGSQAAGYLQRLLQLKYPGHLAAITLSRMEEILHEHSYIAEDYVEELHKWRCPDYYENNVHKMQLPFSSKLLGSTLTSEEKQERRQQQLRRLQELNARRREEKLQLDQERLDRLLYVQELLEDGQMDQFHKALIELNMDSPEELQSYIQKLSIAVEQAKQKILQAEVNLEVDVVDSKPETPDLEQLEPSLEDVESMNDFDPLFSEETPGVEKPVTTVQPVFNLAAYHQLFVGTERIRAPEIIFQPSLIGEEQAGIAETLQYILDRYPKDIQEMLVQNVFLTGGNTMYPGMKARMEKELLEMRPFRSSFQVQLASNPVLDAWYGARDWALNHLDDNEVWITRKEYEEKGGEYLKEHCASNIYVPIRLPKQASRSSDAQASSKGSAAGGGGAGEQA
UniProt Q96A54: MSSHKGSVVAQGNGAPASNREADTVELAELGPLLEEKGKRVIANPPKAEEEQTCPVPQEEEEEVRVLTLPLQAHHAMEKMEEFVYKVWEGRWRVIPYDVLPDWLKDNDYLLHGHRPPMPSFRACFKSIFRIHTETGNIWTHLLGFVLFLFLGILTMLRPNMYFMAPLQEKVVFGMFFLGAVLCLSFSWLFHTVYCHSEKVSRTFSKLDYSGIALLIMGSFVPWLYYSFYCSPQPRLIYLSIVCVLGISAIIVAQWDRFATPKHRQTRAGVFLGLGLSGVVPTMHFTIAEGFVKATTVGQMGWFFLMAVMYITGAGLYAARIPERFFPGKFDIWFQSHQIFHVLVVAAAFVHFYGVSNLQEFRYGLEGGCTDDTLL
UniProt P78536: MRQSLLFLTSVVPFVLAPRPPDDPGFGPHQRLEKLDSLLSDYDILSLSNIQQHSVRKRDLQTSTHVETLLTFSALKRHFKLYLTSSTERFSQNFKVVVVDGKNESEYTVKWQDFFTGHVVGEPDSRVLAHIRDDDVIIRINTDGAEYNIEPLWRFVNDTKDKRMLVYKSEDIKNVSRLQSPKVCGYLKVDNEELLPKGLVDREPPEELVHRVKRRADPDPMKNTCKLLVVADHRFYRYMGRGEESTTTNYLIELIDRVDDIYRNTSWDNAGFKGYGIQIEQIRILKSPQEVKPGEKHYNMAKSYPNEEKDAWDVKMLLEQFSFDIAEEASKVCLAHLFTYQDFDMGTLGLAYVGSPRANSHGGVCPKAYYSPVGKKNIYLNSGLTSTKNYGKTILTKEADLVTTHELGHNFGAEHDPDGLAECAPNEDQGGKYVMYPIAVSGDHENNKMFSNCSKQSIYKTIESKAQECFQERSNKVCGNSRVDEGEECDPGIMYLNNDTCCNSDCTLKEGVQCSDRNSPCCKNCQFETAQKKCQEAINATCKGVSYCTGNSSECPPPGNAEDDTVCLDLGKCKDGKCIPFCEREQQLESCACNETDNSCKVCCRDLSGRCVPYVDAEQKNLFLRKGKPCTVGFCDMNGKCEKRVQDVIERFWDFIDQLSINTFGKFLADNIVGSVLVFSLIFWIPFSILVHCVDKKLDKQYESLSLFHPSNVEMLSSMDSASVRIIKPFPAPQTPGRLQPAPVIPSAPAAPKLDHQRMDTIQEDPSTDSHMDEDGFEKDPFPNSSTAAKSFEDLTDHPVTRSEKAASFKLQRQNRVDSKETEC
UniProt Q5TGY3: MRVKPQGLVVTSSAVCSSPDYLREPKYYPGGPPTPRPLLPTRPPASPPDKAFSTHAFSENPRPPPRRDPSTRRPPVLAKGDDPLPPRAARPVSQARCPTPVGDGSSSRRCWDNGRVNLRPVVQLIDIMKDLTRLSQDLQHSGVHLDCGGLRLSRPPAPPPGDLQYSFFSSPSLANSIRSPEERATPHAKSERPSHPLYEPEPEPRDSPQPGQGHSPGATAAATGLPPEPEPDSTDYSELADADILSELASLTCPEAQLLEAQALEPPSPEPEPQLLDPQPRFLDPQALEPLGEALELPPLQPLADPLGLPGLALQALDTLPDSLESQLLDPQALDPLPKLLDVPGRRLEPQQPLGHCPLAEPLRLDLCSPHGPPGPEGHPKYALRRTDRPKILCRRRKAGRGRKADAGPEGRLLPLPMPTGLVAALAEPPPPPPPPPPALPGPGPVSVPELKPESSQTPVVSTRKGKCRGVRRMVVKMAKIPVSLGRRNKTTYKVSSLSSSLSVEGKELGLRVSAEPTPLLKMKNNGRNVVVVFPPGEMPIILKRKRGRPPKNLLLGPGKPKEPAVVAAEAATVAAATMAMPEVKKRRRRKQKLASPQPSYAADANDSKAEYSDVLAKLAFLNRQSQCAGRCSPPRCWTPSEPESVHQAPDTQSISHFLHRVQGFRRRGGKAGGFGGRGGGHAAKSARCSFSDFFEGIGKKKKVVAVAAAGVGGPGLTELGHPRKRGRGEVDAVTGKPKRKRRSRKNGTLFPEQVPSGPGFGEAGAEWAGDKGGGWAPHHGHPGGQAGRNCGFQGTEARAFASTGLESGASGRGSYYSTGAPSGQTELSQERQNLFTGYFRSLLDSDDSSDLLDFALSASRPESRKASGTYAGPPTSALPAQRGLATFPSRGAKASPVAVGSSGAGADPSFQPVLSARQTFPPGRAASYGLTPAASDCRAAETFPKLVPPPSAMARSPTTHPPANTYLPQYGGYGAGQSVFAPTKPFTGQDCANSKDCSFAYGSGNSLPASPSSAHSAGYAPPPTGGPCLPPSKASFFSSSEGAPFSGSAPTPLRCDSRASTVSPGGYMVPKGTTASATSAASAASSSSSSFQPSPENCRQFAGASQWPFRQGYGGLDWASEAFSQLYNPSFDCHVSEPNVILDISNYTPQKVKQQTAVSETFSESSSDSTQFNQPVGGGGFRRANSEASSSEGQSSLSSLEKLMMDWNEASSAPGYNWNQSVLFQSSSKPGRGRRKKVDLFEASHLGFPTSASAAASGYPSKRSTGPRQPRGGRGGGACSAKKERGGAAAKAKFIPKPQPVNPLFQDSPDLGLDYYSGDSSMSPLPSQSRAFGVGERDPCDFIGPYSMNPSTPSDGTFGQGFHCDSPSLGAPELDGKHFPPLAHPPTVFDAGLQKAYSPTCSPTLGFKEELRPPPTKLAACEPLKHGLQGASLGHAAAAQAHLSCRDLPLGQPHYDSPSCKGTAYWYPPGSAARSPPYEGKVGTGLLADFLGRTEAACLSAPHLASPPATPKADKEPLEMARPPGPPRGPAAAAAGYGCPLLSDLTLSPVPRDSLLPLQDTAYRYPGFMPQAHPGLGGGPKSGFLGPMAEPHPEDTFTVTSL
UniProt Q8WYP5: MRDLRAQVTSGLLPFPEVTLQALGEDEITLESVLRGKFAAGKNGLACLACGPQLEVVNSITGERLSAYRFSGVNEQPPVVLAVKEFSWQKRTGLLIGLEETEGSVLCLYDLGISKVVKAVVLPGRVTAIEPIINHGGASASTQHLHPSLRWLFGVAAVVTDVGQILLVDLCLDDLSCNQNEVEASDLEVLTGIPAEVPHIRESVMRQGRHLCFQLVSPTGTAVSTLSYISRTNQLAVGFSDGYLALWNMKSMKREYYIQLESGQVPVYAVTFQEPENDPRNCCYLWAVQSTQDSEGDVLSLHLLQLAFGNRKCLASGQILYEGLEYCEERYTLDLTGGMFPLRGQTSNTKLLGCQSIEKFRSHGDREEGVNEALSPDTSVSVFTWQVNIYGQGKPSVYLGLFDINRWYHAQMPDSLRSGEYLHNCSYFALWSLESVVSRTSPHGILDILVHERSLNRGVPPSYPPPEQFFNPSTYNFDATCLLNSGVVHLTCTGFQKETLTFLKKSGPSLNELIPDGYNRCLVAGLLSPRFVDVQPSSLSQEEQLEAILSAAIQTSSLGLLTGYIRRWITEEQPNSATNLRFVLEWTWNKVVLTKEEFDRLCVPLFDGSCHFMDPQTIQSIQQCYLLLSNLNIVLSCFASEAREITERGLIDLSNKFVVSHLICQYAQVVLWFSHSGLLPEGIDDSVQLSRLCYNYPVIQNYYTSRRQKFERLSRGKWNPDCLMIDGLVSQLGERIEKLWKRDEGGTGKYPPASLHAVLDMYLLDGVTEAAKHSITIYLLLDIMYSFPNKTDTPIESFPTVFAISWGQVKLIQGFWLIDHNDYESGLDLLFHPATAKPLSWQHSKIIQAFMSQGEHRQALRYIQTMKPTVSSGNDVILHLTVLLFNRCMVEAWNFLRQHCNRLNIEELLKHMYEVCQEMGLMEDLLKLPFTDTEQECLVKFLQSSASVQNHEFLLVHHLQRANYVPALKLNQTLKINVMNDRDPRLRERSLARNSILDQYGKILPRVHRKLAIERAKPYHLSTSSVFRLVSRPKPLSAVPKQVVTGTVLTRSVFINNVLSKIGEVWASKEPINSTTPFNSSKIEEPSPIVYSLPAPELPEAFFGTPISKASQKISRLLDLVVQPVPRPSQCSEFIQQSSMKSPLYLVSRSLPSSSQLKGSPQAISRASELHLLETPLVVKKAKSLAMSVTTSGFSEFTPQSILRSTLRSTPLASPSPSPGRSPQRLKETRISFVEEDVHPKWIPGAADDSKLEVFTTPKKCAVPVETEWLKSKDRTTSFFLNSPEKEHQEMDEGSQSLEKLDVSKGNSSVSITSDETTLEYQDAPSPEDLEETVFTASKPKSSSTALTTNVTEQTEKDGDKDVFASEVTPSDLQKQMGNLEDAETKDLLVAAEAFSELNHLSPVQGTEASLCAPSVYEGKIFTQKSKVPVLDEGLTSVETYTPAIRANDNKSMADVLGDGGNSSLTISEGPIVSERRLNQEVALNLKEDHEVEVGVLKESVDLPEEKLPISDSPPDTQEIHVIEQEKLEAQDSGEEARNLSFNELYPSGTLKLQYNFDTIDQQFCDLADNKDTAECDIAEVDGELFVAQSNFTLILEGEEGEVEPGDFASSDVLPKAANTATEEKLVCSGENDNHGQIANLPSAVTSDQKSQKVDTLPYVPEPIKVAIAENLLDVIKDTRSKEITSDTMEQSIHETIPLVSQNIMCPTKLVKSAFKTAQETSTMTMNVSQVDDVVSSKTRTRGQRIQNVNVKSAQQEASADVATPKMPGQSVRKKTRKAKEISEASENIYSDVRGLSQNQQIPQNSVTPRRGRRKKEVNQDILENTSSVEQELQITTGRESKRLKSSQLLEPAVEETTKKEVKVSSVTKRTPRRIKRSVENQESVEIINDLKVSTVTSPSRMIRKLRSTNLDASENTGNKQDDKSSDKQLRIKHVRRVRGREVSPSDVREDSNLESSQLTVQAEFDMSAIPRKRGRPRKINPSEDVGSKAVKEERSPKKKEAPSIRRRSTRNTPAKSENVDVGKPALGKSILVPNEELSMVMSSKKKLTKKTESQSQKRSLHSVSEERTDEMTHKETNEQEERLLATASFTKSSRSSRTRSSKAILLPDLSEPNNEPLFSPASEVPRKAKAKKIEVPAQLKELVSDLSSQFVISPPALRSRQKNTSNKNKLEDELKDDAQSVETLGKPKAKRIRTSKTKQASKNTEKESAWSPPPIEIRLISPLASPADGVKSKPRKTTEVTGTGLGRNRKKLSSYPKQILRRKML

Target	log2 fold change
AFDN (UniProt H0Y948)	inactive: -0.152
AKAP17A (UniProt Q02040)	inactive: 0.026
AGPAT4 (UniProt Q9NRZ5)	inactive: -0.024
ADPRM (UniProt Q3LIE5)	inactive: 0.117
AKR7L (UniProt Q8NHP1)	inactive: -0.156
AFMID isoform 2 (UniProt Q63HM1)	inactive: 0.049
AJUBA (UniProt Q96IF1)	inactive: 0.167
ACTR5 (UniProt Q9H9F9)	inactive: 0.111
ADD3 isoform 2 (UniProt Q9UEY8)	inactive: -0.009
ADIPOR1 (UniProt Q96A54)	inactive: -0.057
AGA (UniProt P20933)	inactive: 0.067
ADAM17 (UniProt P78536)	inactive: -0.06
AGPAT2 (UniProt O15120)	inactive: 0.1

Compound: Cc1ccc(NC(=O)c2ccc(CN3CC[C@H](N(C)C)C3)c(C(F)(F)F)c2)cc1Nc1nccc(-c2cncnc2)n1 [bafetinib]
Assay: as above
Method in brief: as §1

Target	log2 fold change
AGPAT4 (UniProt Q9NRZ5)	inactive: -0.028
ACSS3 (UniProt Q9H6R3)	inactive: 0.112
AHDC1 (UniProt Q5TGY3)	inactive: -0.151
ADPRM (UniProt Q3LIE5)	inactive: -0.201
ADAT1 (UniProt Q9BUB4)	inactive: 0.124
ACOX3 (UniProt O15254)	inactive: 0.162
ACTB, A0A2R8YGF8	inactive: 0.313
ACTR5 (UniProt Q9H9F9)	inactive: -0.109
ADIPOR1 (UniProt Q96A54)	inactive: -0.281
ACVR1 (UniProt Q04771)	inactive: 0.007
ADAM17 (UniProt P78536)	inactive: 0.019

Compound: Cc1cccc(CC(=O)N2CCc3c2ccc(-c2cn(C)c4ncnc(N)c24)c3F)n1
Assay: as above
Method in brief: as §1

Target	log2 fold change
AKR1C1 (UniProt Q04828)	inactive: -0.227
AFM (UniProt P43652)	inactive: -0.003
AGPAT4 (UniProt Q9NRZ5)	inactive: 0.128
ADCK1 (UniProt Q86TW2)	inactive: 0.1
ADPRM (UniProt Q3LIE5)	inactive: 0.149
AFMID isoform 2 (UniProt Q63HM1)	inactive: 0.095
ACTB, A0A2R8YGF8	inactive: 0.01
AHCTF1 isoform 2 (UniProt Q8WYP5)	inactive: 0.119
ACTB, A0A2R8YEA7	inactive: -0.172
ACTR5 (UniProt Q9H9F9)	inactive: -0.05
ADIPOR1 (UniProt Q96A54)	inactive: -0.025
ACVR1 (UniProt Q04771)	inactive: -0.294
ADAM17 (UniProt P78536)	inactive: 0.099
AGO2 (UniProt E5RJY2)	inactive: 0.138
ADD2 isoform 9 (UniProt P35612)	inactive: -0.025
AGPAT2 (UniProt O15120)	inactive: 0.021
